# Experimental data reported in the supplement of paper PMC8728848.
# This is one part of the list.
# B1: AT1G77380(17) (Arabidopsis thaliana), Q39134 (protein)
# chain: MVQNHQTVLAVDMPQTGGSKYLDDDGKNKRTGSVWTASAHIITAVIGSGVLSLAWATAQLGWLAGPVVMLLFSAVTYFTSSLLAACYRSGDPISGKRNYTYMDAVRSNLGGVKVTLCGIVQYLNIFGVAIGYTIASAISMMAIKRSNCFHKSGGKDPCHMNSNPYMIAFGLVQILFSQIPDFDQLWWLSILAAVMSFTYSSAGLALGIAQVVVNGKVKGSLTGISIGAVTETQKIWRTFQALGDIAFAYSYSIILIEIQDTVKSPPSEEKTMKKATLVSVSVTTMFYMLCGCMGYAAFGDLSPGNLLTGFGFYNPYWLLDIANAAIVIHLIGAYQVYCQPLFAFIEKQASIQFPDSEFIAKDIKIPIPGFKPLRLNVFRLIWRTVFVIITTVISMLLPFFNDVVGLLGALGFWPLTVYFPVEMYIAQKKIPRWSTRWVCLQVFSLGCLVVSIAAAAGSIAGVLLDLKSYKPFRSEY
# What was measured:
# Test in all cases: glycan array binding signal (z-score within array); higher = stronger binding
# Details in all cases: glycan notation: IUPAC condensed, linker removed
# [1] = target: Neu5Gc(a2-8)Neu5Gc(a2-3)Gal(b1-4)GlcNAc(b1-3)Gal(b1-4)GlcNAc
# How it was run: (§1)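 Glycan array data were curated from 3228 arrays in the Consortium for Functional Glycomics database and kept only where the protein sequence was available. Glycan names were converted to IUPAC-condensed notation, and columns mapping to the same glycan were averaged. The binding signal is a within-array Z-score, averaged across arrays of the same protein sequence at different concentrations or buffers and across linkers. Negative Z-scores can be read as non-binding.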
# [2] = target: Neu5Gc(a2-8)Neu5Gc(a2-6)Gal(b1-4)GlcNAc
# How it was run: as §1
# [3] = target: Neu5Gc(b2-6)Gal(b1-4)GlcNAc
# How it was run: as §1
binder,measurement,setting,value
B1,glycan array binding signal (z-score),[1],0.506
same,glycan array binding signal (z-score),[2],-0.946
same,glycan array binding signal (z-score),[3],-0.279
